Laboratory results reported in patent publication US20240251785A1, “SMALL MOLECULE ANTAGONISTS AND AGONISTS OF ARTHROPOD KININ RECEPTORS FOR PEST CONTROL” (The Texas A&M University System, priority 2021, published 2024).
Some results were stated once for a whole list of compounds, not compound by compound. At least one compound was matched to its structure with a doubt left.

Tested on: Human dermal fibroblasts (HDF) cells
Assay: Cytotoxicity assay (resazurin)
Assay type: cell-based
Settings: 20 μmol L^−1

For `CCCCCCCCn1c2c(c(=N)c3c1CCC3)CCCC2` [SACC-0050177], the “HDF fluorescence signal inhibition” value was > 10%.
